The whole screen tested about 330,000 compounds, of which about 7,700 (2.3%) were called active. The shares of active, inactive and inconclusive entries below differ from those in the screen. Calls follow the shape of the dose curve; as a rule, active = well fitted inhibition curve with a large enough effect; inconclusive = small, poorly fitted or top-dose-only effect, or effect the other way; inactive = flat fitted curve, though single readings scatter. A potency beside an inconclusive call is a rough fit, not a confirmed value.
assay: qHTS screen for small molecules that inhibit ELG1-dependent DNA repair in human embryonic kidney (HEK293T) cells expressing luciferase-tagged ELG1; conditions: HEK293T ELG1-luciferase reporter, luminescence, 16 h, DNA damage induced by 5-fluorouridine; activity change, negative = inhibition: at 46.1 µM (top of the series); also: nearly all actives have a fitted effect of over 55% in size
How it was run: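 Luminescence from the luciferase reporter, measured 30 min after ONE-Glo reagent at room temperature, was the read-out. Beforehand, 2,000 cells per well were exposed for 16 hr at 37 °C to 5-fluorouridine together with compound or vehicle.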
% is scaled to controls: 0 for no effect and ±100 for the full control effect; potency is read from the fitted curve at half-maximal effect.

Row | SMILES | Potency | activity change, negative = inhibition
1 | Cc1cc(/C=C2/C(=N)N3C(c4ccccc4)=CSC3=NC2=O)c(C)n1-c1ccccc1 | inconclusive: 29.1 µM [inhibitor, single point] | –
2 | CCOc1ccc(NC(=O)CN(C)C(=O)CSCc2ccc(C)cc2)cc1OCC | active: 7.3 µM | –
3 | O=C(O)CCCCCNC(=O)c1ccncc1 | inconclusive: 29.1 µM [activator, single point] | –
4 | COc1ccc(CNc2ncccc2[N+](=O)[O-])cc1 | inconclusive: 18.3 µM [activator, partial curve] | –
5 | Cc1cccc(C)c1N1C(=O)CC(N2CCSCC2)C1=O (stereo not given) | – | inactive: 16%
6 | CCOc1ccc(NCC(=O)Nc2ccc(C)cc2C)cc1 | – | inactive: -13%
7 | Cc1cc(=O)[nH]c(-c2ccccc2)n1 | – | inactive: 4.6%
8 | CCOC(=O)C1=C(CSc2nc(C)cc(C)c2C#N)OC(N)=C(C#N)C1c1ccccc1 (stereo not given) | inconclusive: 20.6 µM [activator, single point] | –
9 | COc1cc(NC(C)=O)ccc1NC(=O)c1cc2ccccc2o1 | inconclusive: 2.31 µM [activator, partial curve, poor fit] | –
10 | Cc1cc2nnc(SCc3ccccc3)n2c(N)n1 | inconclusive: 14.1 µM [activator, partial curve, poor fit] | –
11 | COc1ccc2c(c1)c1ccc3c(c1n2C)C(=O)C=CC3=O | – | inactive: -10%
12 | OCc1cc(Br)ccc1OCc1nc2ccccc2s1 | inconclusive: 3.66 µM [activator, full curve] | –
13 | FC(F)(F)c1cnc(-c2cnc(-c3ccncc3)nc2)c(Cl)c1 | inconclusive: 5.17 µM [activator, full curve, poor fit] | –
14 | N#CC1=C(N)NC(SCc2ccc(Br)cc2)=C(C#N)C12CCCCC2 | inconclusive: 29.1 µM [inhibitor, single point] | –
15 | Cc1ccc(C)c2[nH]c(=O)c(CCNS(=O)(=O)c3ccccc3)cc12 | inconclusive: 18.4 µM [activator, partial curve, poor fit] | –
16 | CCCCN(C)CCNC(=O)C1CCCN(S(=O)(=O)c2cccc3nsnc23)C1 (stereo not given) | inconclusive: 20.6 µM [activator, partial curve, poor fit] | –
17 | C#CCn1c(S(=O)(=O)Cc2ccccc2Cl)nc(-c2ccccc2)c1-c1ccccc1 | – | inactive: 1.32%
18 | CCCCNC(=S)N/N=C/c1ccc(C#N)cc1 | inconclusive: 16.4 µM [inhibitor, single point] | –
19 | Cn1c(CNc2ccc(Br)cc2)nc2ccccc21 | inconclusive: 11.6 µM [activator, partial curve] | –
20 | CCOC(=O)c1nc(Nc2ccccc2)c2ccccc2n1 | inconclusive: 23.1 µM [inhibitor, partial curve] | –
21 | Cc1ccccc1NC(=O)C(=O)NCCc1ccccc1 | inconclusive: 18.4 µM [activator, single point] | –
22 | COc1cc(CC(NC(C)=O)C(=O)NC2CCN(C(=O)C3CC3)CC2)cc(OC)c1 (stereo not given) | – | inactive: 6.71%
23 | Cc1ccc(Cn2nc(C)c(NC(=O)CSc3nc4c(c(C(F)(F)F)n3)CCc3ccccc3-4)c2C)cc1 | – | inactive: -14.2%
24 | Cc1ccc(CN2CCC(CNC(=O)C3CCCN(c4ncnc5c4nc4n5CCCCC4)C3)CC2)cc1 (stereo not given) | – | inactive: -16.9%
25 | CCOc1ccc(S(=O)(=O)NCc2ccccc2OC)cc1 | – | inactive: -14.1%

Row | SMILES | Potency | activity change, negative = inhibition
26 | CC(C(=O)N1CCOCC1)N1C(=O)c2cccc3cccc(c23)C1=O (stereo not given) | – | inactive: 7.53%
27 | O=C1CC(c2cccc(Cl)c2)Cc2nc(N3CCOCC3)ncc21 (stereo not given) | inconclusive: 29.1 µM [inhibitor, single point] | –
28 | COc1ccc(S(=O)(=O)N2CCN(C(=O)c3ccc(C)o3)CC2)cc1 | – | inactive: -24%
29 | Cc1cccc(C(=O)Oc2ccccc2/C=N/NC(=O)c2ccc(NC(=O)C(C)(C)C)cc2)c1 | inconclusive: 8.2 µM [inhibitor, partial curve, poor fit] | –
30 | NC(=O)c1ccsc1N | – | inactive: 7.39%
31 | COc1ccc(NC(=O)CNC(=O)c2ccc([N+](=O)[O-])cc2)cc1 | – | inactive: -2.96%
32 | O=C(NCc1ccccc1)C1CCN(c2nc(-c3ccccc3)nc3c2CCC3)CC1 | inconclusive: 16.4 µM [inhibitor, single point] | –
33 | O=C(Cn1nnc(-c2ccccc2)n1)N1CCCCC1 | inconclusive: 18.3 µM [activator, partial curve] | –
34 | COc1cc(/C=N\Nc2nc3ccccc3[nH]2)cc(OC)c1OC | – | inactive: -2.35%
35 | Cc1[nH]c2ccccc2c1C(=O)C(=O)N1CCOCC1 | – | inactive: -5.85%
36 | CCn1c(C(C)NS(=O)(=O)c2ccc(Cl)cc2)n[nH]c1=S (stereo not given) | – | inactive: 1.07%
37 | C/C(=N\OCc1ccc(C#N)cc1)c1ccccc1 | inconclusive: 20.6 µM [activator, partial curve] | –
38 | O=C(Nc1cccnc1Cl)c1cc(-c2cccc(O)c2)on1 | inconclusive: 20.6 µM [activator, single point] | –
39 | Cc1ccc(/C=N/N2C(=S)SC(C)(C)C2N(O)C(=O)Nc2ccc([N+](=O)[O-])cc2)cc1 (stereo not given) | – | inactive: -22.5%
40 | CC(=O)N1CCCc2cc(S(=O)(=O)CCC(=O)N3CCN(c4cccc(C)c4)C(C)C3)ccc21 (stereo not given) | active: 20.6 µM | –
41 | CCCCN=C1CC(C)(C)CC(=O)/C1=C(/O)CCC | inconclusive: 6.51 µM [inhibitor, single point] | –
42 | O=C(CCCN1C(=O)/C(=C/c2cccc(Br)c2)SC1=S)Nc1cccnc1 | active: 9.2 µM | –
43 | Cc1ccc(NC(=O)C(=O)NCC2CCCN2S(=O)(=O)c2cccs2)c(C)c1 (stereo not given) | – | inactive: -13.6%
44 | Fc1ccc2[nH]c3c(NCc4ccccc4)ncnc3c2c1 | inconclusive: 2.59 µM [inhibitor, partial curve, poor fit] | –
45 | COC(=O)c1ccc2c(=O)n(C3CCCCC3)c(SCC#N)nc2c1 | inconclusive: 18.4 µM [inhibitor, single point] | –
46 | O=C(NC1=NCCS1)c1sc2ccccc2c1Cl | inconclusive: 4.11 µM [activator, partial curve] | –
47 | CCN(CC1COc2ccccc2O1)C(=S)NCCCN(C)C (stereo not given) | – | inactive: 19.4%
48 | COc1cc(C(=O)NCCc2ccc(S(=O)(=O)N3CCCC3)cc2)cc(OC)c1OC | inconclusive: 25.9 µM [inhibitor, single point] | –
49 | CNc1nc(Cl)nc(Nc2ccccc2)n1 | inconclusive: 29.1 µM [activator, single point] | –
50 | CCCn1c(=O)c(C(=O)NCc2ccccc2)c(O)c2ccccc21 | – | inactive: 8.41%

Arranged by heavy-atom count (falling): 18 of the compounds above
Row | SMILES | Potency | activity change, negative = inhibition
23 | Cc1ccc(Cn2nc(C)c(NC(=O)CSc3nc4c(c(C(F)(F)F)n3)CCc3ccccc3-4)c2C)cc1 | – | inactive: -14.2%
40 | CC(=O)N1CCCc2cc(S(=O)(=O)CCC(=O)N3CCN(c4cccc(C)c4)C(C)C3)ccc21 (stereo not given) | active: 20.6 µM | –
8 | CCOC(=O)C1=C(CSc2nc(C)cc(C)c2C#N)OC(N)=C(C#N)C1c1ccccc1 (stereo not given) | inconclusive: 20.6 µM [activator, single point] | –
17 | C#CCn1c(S(=O)(=O)Cc2ccccc2Cl)nc(-c2ccccc2)c1-c1ccccc1 | – | inactive: 1.32%
2 | CCOc1ccc(NC(=O)CN(C)C(=O)CSCc2ccc(C)cc2)cc1OCC | active: 7.3 µM | –
43 | Cc1ccc(NC(=O)C(=O)NCC2CCCN2S(=O)(=O)c2cccs2)c(C)c1 (stereo not given) | – | inactive: -13.6%
42 | O=C(CCCN1C(=O)/C(=C/c2cccc(Br)c2)SC1=S)Nc1cccnc1 | active: 9.2 µM | –
45 | COC(=O)c1ccc2c(=O)n(C3CCCCC3)c(SCC#N)nc2c1 | inconclusive: 18.4 µM [inhibitor, single point] | –
9 | COc1cc(NC(C)=O)ccc1NC(=O)c1cc2ccccc2o1 | inconclusive: 2.31 µM [activator, partial curve, poor fit] | –
47 | CCN(CC1COc2ccccc2O1)C(=S)NCCCN(C)C (stereo not given) | – | inactive: 19.4%
38 | O=C(Nc1cccnc1Cl)c1cc(-c2cccc(O)c2)on1 | inconclusive: 20.6 µM [activator, single point] | –
21 | Cc1ccccc1NC(=O)C(=O)NCCc1ccccc1 | inconclusive: 18.4 µM [activator, single point] | –
35 | Cc1[nH]c2ccccc2c1C(=O)C(=O)N1CCOCC1 | – | inactive: -5.85%
4 | COc1ccc(CNc2ncccc2[N+](=O)[O-])cc1 | inconclusive: 18.3 µM [activator, partial curve] | –
18 | CCCCNC(=S)N/N=C/c1ccc(C#N)cc1 | inconclusive: 16.4 µM [inhibitor, single point] | –
3 | O=C(O)CCCCCNC(=O)c1ccncc1 | inconclusive: 29.1 µM [activator, single point] | –
49 | CNc1nc(Cl)nc(Nc2ccccc2)n1 | inconclusive: 29.1 µM [activator, single point] | –
7 | Cc1cc(=O)[nH]c(-c2ccccc2)n1 | – | inactive: 4.6%

The results go on.

Row | SMILES | Potency | activity change, negative = inhibition
51 | Cn1c(SCC(=O)NCc2ccc(F)cc2)ncc(C(=O)Nc2ccccc2)c1=O | – | inactive: 7.11%
52 | CC(C)(C)OC(=O)N/N=C/c1ccc(Br)cc1 | inconclusive: 16.4 µM [activator, partial curve] | –
53 | Cc1cccc(NC(=O)c2ccc3nc(N4CCOCC4)sc3c2)c1C | inconclusive: 32.6 µM [inhibitor, single point] | –
54 | COc1ccc(CNC(=O)[C@@H](C)NC(=O)C2CCN(C(=O)[C@@H](N)CCSC)CC2)cc1 | – | inactive: 29%
55 | O=C(CCNS(=O)(=O)c1ccc(Br)cc1)NCc1ccc(Cl)cc1 | – | inactive: 0%
56 | Cc1ccc(-n2c(SCn3nnc4ccccc4c3=O)nnc2-c2cccnc2)c(C)c1 | – | inactive: -20.7%
57 | O=C(CSc1ccccc1)Nc1cccc(S(=O)(=O)N2CCCC2)c1 | – | inactive: 1.16%
58 | O=C(COc1ccc(Cl)cc1)NCc1nnc2c3ccccc3c(-c3ccccc3)nn12 | inconclusive: 5.8 µM [inhibitor, partial curve, poor fit] | –
59 | Cc1cc(C)c(C(=O)COC(=O)c2cccnc2Cl)c(C)c1 | inconclusive: 20.6 µM [activator, partial curve, poor fit] | –
60 | CCOC(=O)c1sc2nc3c(SCCC#N)cc(C(=O)c4cc(F)ccc4O)cn3c(=O)c2c1C | – | inactive: -16.3%
61 | CCCn1c(N)c(C(=O)CN(C)CC(=O)Nc2c(Cl)cccc2Cl)c(=O)[nH]c1=O | inconclusive: 7.3 µM [inhibitor, partial curve, poor fit] | –
62 | CC(C)[C@H](NC(=O)c1ccccc1)C(=O)OCc1nnc(-c2ccccc2)o1 | – | inactive: 14.6%
63 | O=C(Nc1ccc2c(c1)CCC2)c1ccc(F)cc1 | inconclusive: 1.64 µM [activator, partial curve] | –
64 | CCOC(=O)c1c(NC(=O)CCN2CCOCC2)sc(C)c1-c1ccccc1 | active: 20.6 µM | –
65 | C/C(=N\NC(=O)c1ccn(C)n1)c1cccc(NC(=O)c2ccc(C)s2)c1 | inconclusive: 29.1 µM [inhibitor, single point] | –
66 | CCOC(=O)c1cc2cc3ccccc3cc2oc1=O | inconclusive: 23.1 µM [activator, single point] | –
67 | CN(CC(=O)Nc1cccc(Cl)c1)S(=O)(=O)c1ccc2[nH]c(=O)oc2c1 | – | inactive: 15.6%
68 | Cc1c(C(=O)N2CCCC2)oc2c1-c1[nH]ncc1CC2 | inconclusive: 16.4 µM [activator, single point] | –
69 | O=C(C1CCCN(S(=O)(=O)Cc2ccccc2)C1)N1CCC(Cc2ccccc2)CC1 (stereo not given) | inconclusive: 23.1 µM [inhibitor, partial curve, poor fit] | –
70 | COc1ccc2cc(Br)ccc2c1CC(=O)NC(C)C | – | inactive: 2.01%
71 | CCC(=O)c1cn(CC(=O)Nc2cccc(C)c2)c2ccccc12 | inconclusive: 1.12 µM [activator, full curve, poor fit] | –
72 | CCOC(=O)N1CCN(CC(O)COc2ccccc2C(C)CC)CC1 (stereo not given) | – | inactive: 9.02%
73 | Cc1cccc(NC(=O)c2cc(NC(=O)c3ccco3)ccc2Cl)n1 | active: 11.6 µM | –
74 | Cc1ccccc1NC(=O)COc1cccc2c1CCNC2=O | inconclusive: 8.2 µM [activator, single point] | –
75 | CCCc1cc(=O)oc2c(C)c(OC(C)C(=O)NCc3ccccn3)ccc12 (stereo not given) | inconclusive: 20.6 µM [inhibitor, partial curve] | –

Source: PubChem BioAssay AID504467 (National Center for Advancing Translational Sciences (NCATS), 2011)
